Laboratory results: PubChem BioAssay AID1259254 (NCATS, 2017)

Purpose: 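Gene knock-downs that lead to re-replication, shown by excess G2 DNA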 (primary screen)
System: human HCT116 colorectal cancer cells
Knock-down reagent: single siRNA against human genes
Time to read-out: 3 days
Measured: 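Imaged Hoechst DNA stain sorts each cell into a cycle phase by DNA amount; per plate, G2 fraction set to 0% for non-targeting and 100% for GMNN siRNA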
Direction: G2 robust z-score and G2 cells, % of GMNN control: higher = more G2 cells, more excess DNA replication; raw share of cells in G2: higher = larger share of cells with G2 DNA content
Rule for the call: 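An siRNA counts as active if its G2 robust z-score lies at least 5 MADs above the screen median; here such calls match roughly 38% of GMNN control or more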
The whole screen tested about 59,000 reagents; shown is a random part of them. In the full data, about 1,550 (2.6%) were called active. 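G2 share is only a proxy for re-replication; each gene was hit by three separate siRNAs, and active genes were retested.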 The raw values are shown without normalisation. Reagents against one gene are numbered here. Reagent sequences are not shown. The record does not give: the amount of reagent.

gene | siRNA no. | G2 robust z-score | G2 cells, % of GMNN control | raw share of cells in G2 (%) | Outcome
TNFSF14 (TNF superfamily member 14) | 1 | -0.425 | -0.0241 | 5.12 | inactive
TNFSF14 (TNF superfamily member 14) | 2 | -0.586 | -1.16 | 3.44 | inactive
TNFSF14 (TNF superfamily member 14) | 3 | 2.04 | 17.3 | 9.46 | inactive
XYLT2 (xylosyltransferase 2) | 1 | 2.85 | 23 | 15.2 | inactive
XYLT2 (xylosyltransferase 2) | 2 | 6.91 | 51.6 | 23 | active
XYLT2 (xylosyltransferase 2) | 3 | -0.753 | -2.33 | 3.52 | inactive
KCNT1 (potassium sodium-activated channel subfamily T member 1) | 1 | -0.807 | -2.71 | 3.32 | inactive
KCNT1 (potassium sodium-activated channel subfamily T member 1) | 2 | 0.632 | 7.42 | 7.99 | inactive
KCNT1 (potassium sodium-activated channel subfamily T member 1) | 3 | 3.18 | 25.4 | 13.4 | inactive
BLOC1S6 (biogenesis of lysosomal organelles complex 1 subunit 6) | 1 | 4.7 | 36.1 | 22.5 | inactive
BLOC1S6 (biogenesis of lysosomal organelles complex 1 subunit 6) | 2 | 1.45 | 13.1 | 8.55 | inactive
BLOC1S6 (biogenesis of lysosomal organelles complex 1 subunit 6) | 3 | -1.18 | -5.31 | 2.25 | inactive
URB2 (URB2 ribosome biogenesis homolog) | 1 | 0.216 | 4.49 | 7.36 | inactive
URB2 (URB2 ribosome biogenesis homolog) | 2 | -0.36 | 0.434 | 4.12 | inactive
URB2 (URB2 ribosome biogenesis homolog) | 3 | 1.12 | 10.9 | 7.36 | inactive
LOC653698 | 1 | 0.529 | 6.69 | 6.24 | inactive
LOC653698 | 2 | 0.00158 | 2.98 | 4.27 | inactive
LOC653698 | 3 | -0.116 | 2.15 | 3.42 | inactive
RNF10 (ring finger protein 10) | 1 | -0.762 | -2.4 | 4.25 | inactive
RNF10 (ring finger protein 10) | 2 | 1.07 | 10.5 | 8.33 | inactive
RNF10 (ring finger protein 10) | 3 | 3.24 | 25.7 | 12.8 | inactive
RELL1 (RELT like 1) | 1 | -0.465 | -0.303 | 2.87 | inactive
RELL1 (RELT like 1) | 2 | 0.307 | 5.13 | 6.21 | inactive
RELL1 (RELT like 1) | 3 | -0.664 | -1.7 | 2.75 | inactive
C1orf174 (chromosome 1 open reading frame 174) | 1 | 1.74 | 15.2 | 10.3 | inactive
C1orf174 (chromosome 1 open reading frame 174) | 2 | -0.397 | 0.176 | 4.05 | inactive
C1orf174 (chromosome 1 open reading frame 174) | 3 | -0.0493 | 2.62 | 4.41 | inactive
RUFY1 (RUN and FYVE domain containing 1) | 1 | -0.433 | -0.0765 | 2.76 | inactive
RUFY1 (RUN and FYVE domain containing 1) | 2 | -1.13 | -4.96 | 3.67 | inactive
RUFY1 (RUN and FYVE domain containing 1) | 3 | -0.247 | 1.23 | 4.02 | inactive

Laid out differently: 3 of the entries above
gene,siRNA no.,G2 robust z-score,"G2 cells, % of GMNN control",raw share of cells in G2 (%),Outcome
URB2 (URB2 ribosome biogenesis homolog),1,0.216,4.49,7.36,inactive
URB2 (URB2 ribosome biogenesis homolog),2,-0.36,0.434,4.12,inactive
URB2 (URB2 ribosome biogenesis homolog),3,1.12,10.9,7.36,inactive
